In article PMC8001828:
Results are given in words; binding and its absence hold for the method and conditions named. In cells and extracts the contact can be indirect. Some entries that bind do so weakly or less than the wild type.

Sequences of proteins named here, by UniProt entry; tags and fusion partners are left off.
UniProt O15541: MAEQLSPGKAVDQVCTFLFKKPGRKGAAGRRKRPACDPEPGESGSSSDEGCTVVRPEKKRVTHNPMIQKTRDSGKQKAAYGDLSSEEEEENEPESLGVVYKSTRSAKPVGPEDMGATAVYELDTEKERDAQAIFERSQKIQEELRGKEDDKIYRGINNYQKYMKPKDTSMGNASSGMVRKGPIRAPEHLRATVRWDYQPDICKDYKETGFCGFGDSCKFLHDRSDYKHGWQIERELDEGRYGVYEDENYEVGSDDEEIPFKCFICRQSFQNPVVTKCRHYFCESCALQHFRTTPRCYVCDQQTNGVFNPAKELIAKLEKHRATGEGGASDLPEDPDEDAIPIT

Tests used:
[1] = target: Ku70 (endogenous) (human (endogenous in HeLa)) (UniProt P12956); test: proximity ligation; Duolink PLA in fixed HeLa cells on endogenous proteins, mouse anti-Ku70 with rabbit anti-Ku80, anti-RNF113A or anti-Spindly
[2] = target: Ku70 vWA-NLS-BioID2-HA (human) (UniProt P12956); test: proximity ligation; Duolink PLA in fixed stable HEK293 lines, mouse anti-HA with rabbit anti-Ku80, anti-RNF113A or anti-Spindly

Molecule | binding [1] | binding [2]
RING finger protein 113A (endogenous, HeLa) (from UniProt O15541 1-343) | binds | –
RING finger protein 113A (from UniProt O15541 1-343) | – | binds
Protein Spindly (endogenous, HeLa) (protein, UniProt Q96EA4 1-605) MEADIITNLRCRLKEAEEERLKAAQYGLQLVESQNELQNQLDKCRNEMMTMTESYEQEKYTLQREVELKSRMLESLSCECEAIKQQQKMHLEKLEEQLSRSHGQEVNELKTKIEKLKVELDEARLSEKQLKHQVDHQKELLSCKSEELRVMSERVQESMSSEMLALQIELTEMESMKTTLKEEVNELQYRQEQLELLITNLMRQVDRLKEEKEEREKEAVSYYNALEKARVANQDLQVQLDQALQQALDPNSKGNSLFAEVEDRRAAMERQLISMKVKYQSLKKQNVFNREQMQRMKLQIATLLQMKGSQTEFEQQERLLAMLEQKNGEIKHLLGEIRNLEKFKNLYDSMESKPSVDSGTLEDNTYYTDLLQMKLDNLNKEIESTKGELSIQRMKALFESQRALDIERKLFANERCLQLSESENMKLRAKLDELKLKYEPEETVEVPVLKKRREVLPVDITTAKDACVNNSALGGEVYRLPPQKEETQSCPNSLEDNNLQLEKSVSIYTPVVSLSPHKNLPVDMQLKKEKKCVKLIGVPADAEALSERSGNTPNSPRLAAESKLQTEVKEGKETSSKLEKETCKKLHPILYVSSKSTPETQCPQQ | binds | –
